# PubChem BioAssay AID1259405 | NCATS | 2018
# Test: 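Knock-downs that lift recombinant protein yield in hamster ovary cells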 (primary screen)
# System: Chinese hamster CHO-K1 ovary cells with stable secreted eGFP expression
# Reagents: single siRNA against mouse genes, 0.8 pmol siRNA per well (2 µl of 400 nM stock)
# Timing: 3 days
# Measured: 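Per-well intracellular GFP measured by laser scanning cytometry, plus viability from ATP luminescence, each relative to plate median of non-targeting control wells, in %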
# Reading the numbers: GFP, % of control: higher = more GFP per well, higher productivity; viability (ATP), % of control: higher = more viable cells (more ATP)
# Hit rule: 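a knock-down is called active if GFP reaches 120% or more of non-targeting control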
# In all, the deposit lists about 50,000 reagents; this is an unselected part. Of all reagents, about 4,000 (8%) are marked active. 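Mouse siRNA library applied to hamster cells; one well for each siRNA.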 A number with no mark means an inactive call. The numbers tell different reagents against one gene apart.
gene knocked down,siRNA no.,"GFP, % of control","viability (ATP), % of control"
Ncbp2as2 (GeneID 106264),1,85.4,112
Ncbp2as2 (GeneID 106264),2,68.3,89.8
Ncbp2as2 (GeneID 106264),3,126 (active),102
Scgb3a1 (GeneID 68662),1,66.2,51.7
Scgb3a1 (GeneID 68662),2,61.4,39.8
Scgb3a1 (GeneID 68662),3,60.3,97.6
Glrp1 (GeneID 14659),1,44.3,74.7
Glrp1 (GeneID 14659),2,58.4,78.8
Glrp1 (GeneID 14659),3,52.4,85.9
Or10d5j (GeneID 258364),1,69.6,74
Or10d5j (GeneID 258364),2,98.3,85.1
Or10d5j (GeneID 258364),3,54.6,58.3
Rhov (GeneID 228543),1,72,105
Rhov (GeneID 228543),2,54.2,86.6
Rhov (GeneID 228543),3,49.8,63.2
Atosa (GeneID 235493),1,75.5,65.7
Atosa (GeneID 235493),2,90.5,95.5
Atosa (GeneID 235493),3,79.4,87.4

The list goes on (2 carried over from the part before).
gene knocked down,siRNA no.,"GFP, % of control","viability (ATP), % of control"
Atosa (GeneID 235493),2,90.5,95.5
Atosa (GeneID 235493),3,79.4,87.4
4932416K20Rik (GeneID 442809),1,105,94.5
4932416K20Rik (GeneID 442809),2,97.6,69.9
4932416K20Rik (GeneID 442809),3,77.9,83.4
Pigb (GeneID 55981),1,143 (active),85.8
Pigb (GeneID 55981),2,160 (active),124
Pigb (GeneID 55981),3,103,126
Myo15a (GeneID 17910),1,95.4,97.8
Myo15a (GeneID 17910),2,74,115
Polr3h (GeneID 78929),1,22.9,38.9
Polr3h (GeneID 78929),2,102,95.3
Polr3h (GeneID 78929),3,49.8,79.5
Ctnnd2 (GeneID 18163),1,89.6,97
Ctnnd2 (GeneID 18163),2,114,89.1
Ctnnd2 (GeneID 18163),3,101,91.7
Katnbl1 (GeneID 72425),1,111,70.9
Katnbl1 (GeneID 72425),2,125 (active),77.7
Katnbl1 (GeneID 72425),3,62.1,60.2
